Measurements from publication doi:10.1101/2025.09.04.674117.
No constants are given. Whether binding was seen depends on the method and setting. Binding seen in cells or lysates may run through a third protein. Some binding calls cover weakened binding; strength is not graded here. Sequences can lack the tags named with a protein.

By UniProt entry, the sequences of proteins in these tests, tags left out.
UniProt Q14974: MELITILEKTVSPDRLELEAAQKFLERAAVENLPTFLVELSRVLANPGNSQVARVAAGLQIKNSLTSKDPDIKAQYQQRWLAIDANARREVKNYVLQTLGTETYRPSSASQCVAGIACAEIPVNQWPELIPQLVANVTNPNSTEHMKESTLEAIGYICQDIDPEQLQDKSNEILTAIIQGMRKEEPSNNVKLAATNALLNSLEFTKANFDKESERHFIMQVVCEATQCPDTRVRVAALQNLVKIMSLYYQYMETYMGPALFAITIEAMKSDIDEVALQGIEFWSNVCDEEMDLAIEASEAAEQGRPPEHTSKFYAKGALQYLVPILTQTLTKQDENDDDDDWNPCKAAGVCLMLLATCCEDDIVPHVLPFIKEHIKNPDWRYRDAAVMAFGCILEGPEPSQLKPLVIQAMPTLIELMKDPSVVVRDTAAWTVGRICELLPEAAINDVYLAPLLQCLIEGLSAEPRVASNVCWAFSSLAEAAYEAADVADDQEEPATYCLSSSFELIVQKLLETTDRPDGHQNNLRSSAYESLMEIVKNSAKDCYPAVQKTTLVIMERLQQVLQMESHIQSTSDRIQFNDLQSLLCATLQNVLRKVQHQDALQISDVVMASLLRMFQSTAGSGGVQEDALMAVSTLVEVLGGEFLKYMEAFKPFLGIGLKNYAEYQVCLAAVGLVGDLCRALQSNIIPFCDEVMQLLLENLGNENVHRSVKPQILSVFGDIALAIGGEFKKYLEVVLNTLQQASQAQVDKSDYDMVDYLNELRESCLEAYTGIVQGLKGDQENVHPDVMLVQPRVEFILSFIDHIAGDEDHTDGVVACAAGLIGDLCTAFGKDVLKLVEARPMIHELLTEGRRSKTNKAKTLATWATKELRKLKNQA

Target: Glutathione S-transferase (GST)-tagged importin-β1 (UniProt Q14974)
Experiment: pull-down

B1: mNeonGreen (mNG)-tagged Ect2 (328-388), non-mutant control (domain or fragment, UniProt Q9H8V3-4 328-388)
chain: TPELKKSVSMLSLNTPNSNRKRRRLKETLAQLSRETDVSPFPPRKRPSAEHSLSIGSLLDI
In the case of B1, the binding is reported as “binds”.

B2: mNeonGreen:Ect2^3A (328-388) (domain or fragment, UniProt Q9H8V3-4 328-388)
chain: TPELKKSVSMLSLNTPNSNRAAARLKETLAQLSRETDVSPFPPRKRPSAEHSLSIGSLLDI
B2 was tested, and the binding was “binds”.
